# Reference: the supplement of paper PMC12823440, “Inhibitors supercharge kinase turnover through native proteolytic circuits” (Nature, 2025)
# Protein sequences, listed by entry. Tags and fused reporters are not part of them.
# UniProt Q14289, whole entry, looked up: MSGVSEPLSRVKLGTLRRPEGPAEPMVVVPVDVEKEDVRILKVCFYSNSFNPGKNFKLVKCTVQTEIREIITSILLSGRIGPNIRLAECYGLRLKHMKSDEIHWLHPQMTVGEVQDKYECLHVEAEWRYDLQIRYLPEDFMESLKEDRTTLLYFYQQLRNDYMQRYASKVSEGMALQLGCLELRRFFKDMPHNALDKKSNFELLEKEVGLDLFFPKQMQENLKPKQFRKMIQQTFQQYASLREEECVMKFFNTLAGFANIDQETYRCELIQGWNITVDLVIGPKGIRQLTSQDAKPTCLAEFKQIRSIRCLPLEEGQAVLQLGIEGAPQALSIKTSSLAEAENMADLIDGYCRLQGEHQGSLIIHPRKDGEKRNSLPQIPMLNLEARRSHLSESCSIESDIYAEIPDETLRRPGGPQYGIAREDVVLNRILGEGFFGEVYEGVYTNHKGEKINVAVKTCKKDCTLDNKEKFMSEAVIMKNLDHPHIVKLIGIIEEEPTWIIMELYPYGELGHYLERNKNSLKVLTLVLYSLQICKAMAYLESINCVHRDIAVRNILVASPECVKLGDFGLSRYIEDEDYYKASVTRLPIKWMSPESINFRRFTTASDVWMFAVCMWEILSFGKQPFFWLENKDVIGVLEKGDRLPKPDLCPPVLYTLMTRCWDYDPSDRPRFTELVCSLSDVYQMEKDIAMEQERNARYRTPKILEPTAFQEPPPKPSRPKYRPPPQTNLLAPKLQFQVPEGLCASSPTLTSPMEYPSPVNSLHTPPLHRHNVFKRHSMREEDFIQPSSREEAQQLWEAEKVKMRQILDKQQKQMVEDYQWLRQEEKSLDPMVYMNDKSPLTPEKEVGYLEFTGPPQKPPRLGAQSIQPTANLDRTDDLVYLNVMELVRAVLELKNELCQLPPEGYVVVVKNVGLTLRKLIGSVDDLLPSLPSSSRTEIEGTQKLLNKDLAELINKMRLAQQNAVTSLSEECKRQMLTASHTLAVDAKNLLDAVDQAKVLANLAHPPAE
# Counter-ions that a name gives are not always drawn. This is one part of the list. The calls rarely recur for the same compound in another form.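 Kinases, fused to nanoluciferase, were expressed in K562 cells; luminescence was measured every 4 h from 2 to 18 h as percent of control (DMSO = 100%, positive control = 0%). A time point is decreased if signal falls significantly (2 sigma). Hits were called by the authors by a rule that is not shown; the count of time points alone does not decide it.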
# Molecular target: PTK2B (UniProt Q14289)
# Assay: number of time points (of 5) at which kinase-Nluc abundance scored as decreased, DMSO-normalised (count); higher = more persistent destabilization
# Conditions: K562; 2-18 h
row,Structure (SMILES),number of time points
1,Cn1cnc(-c2cc3nccc(Oc4ccc(NC(=S)NC(=O)Cc5ccccc5)cc4F)c3s2)c1 [MGCD-265 analog] (10 µM),0
2,Cn1c(=O)c(F)c(Nc2ccc(I)cc2F)c2c(=O)n(C[C@@H](O)CO)cnc21 (10 µM),0
3,Nc1ncnc2c1c(-c1ccc(Oc3ccccc3)cc1)nn2C1CCNCC1 [N-piperidine Ibrutinib (hydrochloride)] (10 µM),0
4,Cc1csc(-c2nnc(Nc3ccc(Oc4ncccc4-c4ccnc(N)n4)cc3)c3ccccc23)c1 (2.5 µM),0
5,O=C(O)CCc1ccc(O)c(O)c1 [Dihydrocaffeic acid] (10 µM),0
6,COCCOc1cnc(Sc2cc(C)c(-c3csc(NC(=O)c4ccncc4)n3)c(C)c2)cn1 [T-1101 (tosylate)] (2.5 µM),0
7,Cc1cc(NC(=O)c2cccc(NC(=O)/C=C/CN(C)C)c2)ccc1Nc1nccc(-c2cccnc2)n1 (10 µM),0
8,Cc1c(NC(=O)OC[C@@H]2COCCN2)cn2ncnc(Nc3ccc4c(cnn4Cc4cccc(F)c4)c3)c12 (10 µM),0
9,Cc1ccc(-c2c(C(=O)CF)n(CCCO)c3ncnc(N)c23)cc1 (10 µM),0
10,Cc1ccc(-c2c(C(=O)CCl)n(CCCO)c3ncnc(N)c23)cc1 (10 µM),2
11,COc1cc(F)c(F)c(Nc2ccc(I)cc2F)c1NS(=O)(=O)C1(C[C@H](O)CO)CC1 [Refametinib] (10 µM),0
12,CCN(CC)c1ccc2cc(C(=O)N3CCN(C(=O)C4=Cc5c(Br)cccc5S4(=O)=O)CC3)c(=O)oc2c1 (2 µM),0
13,COc1ccc(C(=C2C(=O)Nc3ccccc32)c2ccc(OC)cc2)cc1 (10 µM),0
14,N#Cc1ccc2ncnc(NC3CCC(N4CCOCC4)CC3)c2c1 (stereo not given) (10 µM),0
15,NCCN1CCN(C/C=C/C(=O)N2CCC[C@@H](n3nc(-c4ccc(Oc5ccccc5)cc4)c4c(N)ncnc43)C2)CC1 [Ibrutinib-MPEA] (10 µM),0
16,CN(CC(=O)N(Cc1ccc(C2CCCCC2)cc1)c1ccc(C(=O)O)cc1)S(=O)(=O)c1c(F)c(F)c(F)c(F)c1F (2.5 µM),0
17,CCn1c(C(=O)N(C2CC2)C2CC2)cc2c3c(ncn3C)c(Nc3cc(C)n(C)n3)nc21 (10 µM),0
18,CC(C)CN(CC(=O)N1CCN(CC(OCc2ccc3ccccc3c2)c2ccc(Cl)cc2Cl)CC1)CC(C)C (stereo not given) [LYN-1604 (dihydrochloride)] (2.5 µM),0
19,COc1ccc2[nH]cc(/C=C3\C(=O)Nc4ccc(NC(=O)CCN5CCCCC5)cc43)c2c1 (2.5 µM),0
20,CC(C)=CC(=O)CCC(=O)N1CCN(Cc2cc3nc(-c4cccc5[nH]ncc45)nc(N4CCOCC4)c3s2)CC1 (10 µM),0
21,O=C(NCCO)c1ccc2c(c1)nc(Nc1cccc(Cl)c1)c1ccncc12 [CK2 inhibitor 2] (10 µM),0
22,COc1ccc(CC(=O)Nc2nc3c(s2)CCc2ccccc2-3)cc1OC (10 µM),0
23,c1cc2c(cc1O[C@H]1OC[C@H]3[C@@H]1CO[C@@H]3c1ccc3c(c1)OCO3)OCO2 [Sesamolin] (10 µM),0
24,OCCNC1CCCc2c1[nH]c1ccc(-c3ccccc3)cc21 (stereo not given) (2.5 µM),0
25,CNc1nc(Nc2cnn(C3CCN(C4COC4)CC3F)c2Cl)ncc1C(F)(F)F (stereo not given) (10 µM),0
26,Cc1cc2cc(Nc3ccnc(Nc4ccc5[nH]c(C)cc5c4)n3)ccc2[nH]1 (2.5 µM),0
27,CC(C)(C)NC(=O)c1cncn1C1CCN(c2ccc(-c3nnc(C(F)(F)F)o3)cn2)CC1 (10 µM),0

# Molecular target: RAF1 (UniProt P04049)
# Assay: as above
# Conditions: K562; 2-18 h
row,Structure (SMILES),number of time points
1,C[C@@H](c1ccc2nccn2c1)n1nnc2ncc(-c3cnn(C)c3)nc21 [Savolitinib] (10 µM),0
2,CN1C(=O)C(Cc2c[nH]c3ccccc23)NC1=S (stereo not given) [Necrostatin-1] (10 µM),0
3,C[C@@H]1C(=O)O[C@H](C)[C@H]1C[C@@H](O)[C@](C)(O)[C@H]1CC[C@@]2(O)C3=CC(=O)[C@@H]4C[C@@H](O)[C@@H](O)C[C@]4(C)[C@H]3CC[C@]12C [Cyasterone] (10 µM),0
4,CC(c1ccc(-c2cnc3c(-c4ccc(S(N)(=O)=O)c5ccccc45)cnn3c2)cc1)N1CCCC1 (stereo not given) (2.5 µM),0
5,CCn1c(=O)c(-c2ccc(-c3cncc(C)n3)cc2Cl)cc2cnc(NCCC3CCN(C)CC3)nc21 (10 µM),0
6,"O=C(O)c1cc(O)ccc1O [2,5-Dihydroxybenzoic acid] (10 µM)",0
7,CC(=NNC(=O)c1ccc(C)c(Br)c1)c1ccc(O)cc1O [mTOR inhibitor-1] (2.5 µM),0
8,Nc1ncnc2c1ncn2[C@@H]1O[C@H](CO)C[C@H]1O [Cordycepin] (10 µM),0
9,C=CC(=O)Nc1cc2c(Nc3ccc(OCc4ccccn4)c(Cl)c3)ncnc2cc1OCCN1CCOCC1 (10 µM),0
10,Cc1ccc(S(=O)(=O)Nc2ccccc2C=Nc2ccccc2NS(=O)(=O)c2ccc(C)cc2)cc1 (10 µM),0
11,CCOc1cc(C(=O)N2CCC(N3CCN(C)CC3)CC2)ccc1Nc1ncc2c(n1)N(C1CCCC1)c1ccccc1C(=O)N2C (10 µM),0
12,Cn1cnc(-c2cc3nccc(Oc4ccc(NC(=S)NC(=O)Cc5ccccc5)cc4F)c3s2)c1 [MGCD-265 analog] (10 µM),0
13,Cn1c(=O)c(F)c(Nc2ccc(I)cc2F)c2c(=O)n(C[C@@H](O)CO)cnc21 (10 µM),1
14,Nc1ncnc2c1c(-c1ccc(Oc3ccccc3)cc1)nn2C1CCNCC1 [N-piperidine Ibrutinib (hydrochloride)] (10 µM),0
15,Cc1csc(-c2nnc(Nc3ccc(Oc4ncccc4-c4ccnc(N)n4)cc3)c3ccccc23)c1 (2.5 µM),0
16,O=C(O)CCc1ccc(O)c(O)c1 [Dihydrocaffeic acid] (10 µM),0
17,COCCOc1cnc(Sc2cc(C)c(-c3csc(NC(=O)c4ccncc4)n3)c(C)c2)cn1 [T-1101 (tosylate)] (2.5 µM),0
18,Cc1cc(NC(=O)c2cccc(NC(=O)/C=C/CN(C)C)c2)ccc1Nc1nccc(-c2cccnc2)n1 (10 µM),0
19,Cc1c(NC(=O)OC[C@@H]2COCCN2)cn2ncnc(Nc3ccc4c(cnn4Cc4cccc(F)c4)c3)c12 (10 µM),0

row,Structure (SMILES),number of time points
1,Cc1ccc(-c2c(C(=O)CF)n(CCCO)c3ncnc(N)c23)cc1 (10 µM),0
2,Cc1ccc(-c2c(C(=O)CCl)n(CCCO)c3ncnc(N)c23)cc1 (10 µM),2
3,COc1cc(F)c(F)c(Nc2ccc(I)cc2F)c1NS(=O)(=O)C1(C[C@H](O)CO)CC1 [Refametinib] (10 µM),2
4,CCN(CC)c1ccc2cc(C(=O)N3CCN(C(=O)C4=Cc5c(Br)cccc5S4(=O)=O)CC3)c(=O)oc2c1 (2 µM),0
5,COc1ccc(C(=C2C(=O)Nc3ccccc32)c2ccc(OC)cc2)cc1 (10 µM),0
6,N#Cc1ccc2ncnc(NC3CCC(N4CCOCC4)CC3)c2c1 (stereo not given) (10 µM),0
7,NCCN1CCN(C/C=C/C(=O)N2CCC[C@@H](n3nc(-c4ccc(Oc5ccccc5)cc4)c4c(N)ncnc43)C2)CC1 [Ibrutinib-MPEA] (10 µM),0
8,CN(CC(=O)N(Cc1ccc(C2CCCCC2)cc1)c1ccc(C(=O)O)cc1)S(=O)(=O)c1c(F)c(F)c(F)c(F)c1F (2.5 µM),5
9,CCn1c(C(=O)N(C2CC2)C2CC2)cc2c3c(ncn3C)c(Nc3cc(C)n(C)n3)nc21 (10 µM),0
10,CC(C)CN(CC(=O)N1CCN(CC(OCc2ccc3ccccc3c2)c2ccc(Cl)cc2Cl)CC1)CC(C)C (stereo not given) [LYN-1604 (dihydrochloride)] (2.5 µM),0
11,COc1ccc2[nH]cc(/C=C3\C(=O)Nc4ccc(NC(=O)CCN5CCCCC5)cc43)c2c1 (2.5 µM),0
12,CC(C)=CC(=O)CCC(=O)N1CCN(Cc2cc3nc(-c4cccc5[nH]ncc45)nc(N4CCOCC4)c3s2)CC1 (10 µM),0
13,O=C(NCCO)c1ccc2c(c1)nc(Nc1cccc(Cl)c1)c1ccncc12 [CK2 inhibitor 2] (10 µM),0
14,COc1ccc(CC(=O)Nc2nc3c(s2)CCc2ccccc2-3)cc1OC (10 µM),0
15,c1cc2c(cc1O[C@H]1OC[C@H]3[C@@H]1CO[C@@H]3c1ccc3c(c1)OCO3)OCO2 [Sesamolin] (10 µM),0
16,OCCNC1CCCc2c1[nH]c1ccc(-c3ccccc3)cc21 (stereo not given) (2.5 µM),1
17,CNc1nc(Nc2cnn(C3CCN(C4COC4)CC3F)c2Cl)ncc1C(F)(F)F (stereo not given) (10 µM),0
18,Cc1cc2cc(Nc3ccnc(Nc4ccc5[nH]c(C)cc5c4)n3)ccc2[nH]1 (2.5 µM),0
19,CC(C)(C)NC(=O)c1cncn1C1CCN(c2ccc(-c3nnc(C(F)(F)F)o3)cn2)CC1 (10 µM),0
